Results on 32 compounds are retold here after the supplement of paper PMC12889115.

The structures appear in SMILES notation. The list shows a part of the results. These are raw signals, not scaled to a control.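 In the initial screen, polymyxin B was used at a concentration that permeabilizes Salmonella's outer membrane but not its inner membrane. Maximum growth was set by DMSO wells with or without polymyxin B. Since plates varied, data were ranked per plate, and compounds giving the lowest OD600 advanced as hits.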

The assay has as its system Salmonella enterica serovar Typhimurium SL1344. Nature of the assay: bacterial growth OD600 after 18 h with compound and polymyxin B; higher = more bacterial growth (less inhibition). The note with it: 50 µM, Mueller-Hinton broth.

Consider `COc1cc(CN2CCc3c(C(=O)NC(C)c4ccco4)c(OC)cc(=O)n3CC2)cc2c1OCO2` (configuration not stated), for which the “bacterial growth OD600” value (polymyxin B 0.75 µg/mL) worked out at 0.79.

With `O=C(C1CC=CCC1)N1CCC(C2(c3cccnc3)NC(=O)N(CCc3cccs3)C2=O)CC1` (configuration not stated), where the note is “polymyxin B 0.75 µg/mL”, the “bacterial growth OD600” value stood at 0.817. Still for that read-out and setting: next, `CN(C)S(=O)(=O)N1CCC(C2CCN(c3ncccn3)CC2)C1` (configuration not stated): 0.922. Turning to `Cc1cc(F)ccc1NC(=O)CCC1CCCN(Cc2nccn2C)C1` (configuration not stated), the “bacterial growth OD600” value (polymyxin B 1 µg/mL) was 1.08.

For `O=C(Nc1ccnn1C1CCN(C(=O)CN2CCCCC2)CC1)c1ccc2c(c1)OCO2`, the “bacterial growth OD600” value (polymyxin B 0.75 µg/mL) was 0.908. With `O=C(c1ccncc1)N1CCC(C2CCN(c3ncccn3)CC2)C1` (configuration not stated), for the setting “polymyxin B 0.75 µg/mL”, the “bacterial growth OD600” value stood at 0.823. Take `C[C@@H]1CN(C2CCN(c3nc4nonc4nc3NC3CCCC3)CC2)C[C@H](C)O1`: the “bacterial growth OD600” value (polymyxin B 1 µg/mL) came to 1.07. For the compound `CC(C)c1ccc(NC2CCCN(C(=O)c3cccc4nccnc34)C2)cc1` (configuration not stated), for the setting “polymyxin B 1 µg/mL”, the “bacterial growth OD600” value worked out at 1.07. On to `COCCN1CCCC(CNc2nc3nonc3nc2NC2CC2)C1` (configuration not stated), for which the “bacterial growth OD600” value (polymyxin B 0.75 µg/mL) turned out to be 0.834. On to `COCCC(=O)N1CCC(C(=O)Nc2cccc(-c3cc4ccccc4[nH]3)c2)CC1`, for which the “bacterial growth OD600” value (polymyxin B 1 µg/mL) is 0.815.

For `O=C(Nc1ccnn1C1CCN(C(=O)c2ccsc2)CC1)c1ccc2c(c1)OCO2`, for the setting “polymyxin B 1 µg/mL”, the “bacterial growth OD600” value amounted to 0.98.

In the case of `O=C(CCN1CCCO1)N1CCc2[nH]nc(-c3ccc(Cl)cc3)c2C1`, where the note is “polymyxin B 0.75 µg/mL”, the “bacterial growth OD600” value was determined as 0.899. As for `CN(C)S(=O)(=O)NCc1cccnc1Oc1ccc(F)c(F)c1`, the “bacterial growth OD600” value (polymyxin B 1 µg/mL) was determined as 0.849. For the compound `COc1ccc(C(=O)C2CCCN(Cc3cnc(SC)nc3)C2)c(OC)c1` (configuration not stated), under “polymyxin B 1 µg/mL”, the “bacterial growth OD600” value came to 0.848.

For the compound `CC(C)N1CCC(N2CCCC(C(=O)NCc3cn4ccsc4n3)C2)CC1` (configuration not stated), the “bacterial growth OD600” value (polymyxin B 0.75 µg/mL) was 1. Turning to `CCOC(=O)C1CCN(Cc2nc(Cc3ccccc3Cl)no2)CC1`, for the setting “polymyxin B 1 µg/mL”, the “bacterial growth OD600” value turned out to be 0.925. Still for that read-out and setting: next, `CCC1CN(c2ccc(C(=O)NCCCc3ccccn3)cn2)CCN1C` (configuration not stated): 0.81. `Cc1ccn(CC(=O)N2CCCC(C(=O)c3ccc(-c4ccccc4)cc3)C2)n1` (configuration not stated): the “bacterial growth OD600” value (polymyxin B 1 µg/mL) was found to be 0.002.

As for `CN(C)CC(=O)NCc1cccnc1Oc1cccc(C(F)(F)F)c1`, the “bacterial growth OD600” value (polymyxin B 0.75 µg/mL) turned out to be 0.868. With `COCCN(Cc1cn(-c2ccccc2)nc1-c1cccc(OC)c1)C(C)C`, the “bacterial growth OD600” value (polymyxin B 1 µg/mL) stood at 0.964. For the compound `CN(CCc1ccccc1)C(=O)c1cc(Cn2cnc3ccccc32)[nH]n1`, where the note is “polymyxin B 1 µg/mL”, the “bacterial growth OD600” value came out at 0.843. `O=C(CCN1Cc2ccccc2OC(c2ccccc2)C1)N1CCC(Oc2cccnc2)CC1` (configuration not stated): the “bacterial growth OD600” value (polymyxin B 0.75 µg/mL) is 0.006. With `COc1ccccc1CNC(=O)c1c(OC)cc(=O)n2c1CCN(Cc1ccccc1Cl)CC2`, for the setting “polymyxin B 0.75 µg/mL”, the “bacterial growth OD600” value amounted to 0.82. As to `CCC(COC)NCc1cn(-c2ccc(OC)cc2)nc1-c1cccc(F)c1` (configuration not stated), the “bacterial growth OD600” value (polymyxin B 1 µg/mL) was determined as 0.739.

On to `COc1cccc(CC(C2CCN(C(=O)c3ccc(C)c(C)c3)CC2)N(C)C(=O)CC(C)C)c1` (configuration not stated), for which the “bacterial growth OD600” value (polymyxin B 0.75 µg/mL) came out at 0.002. Regarding `O=C(Cc1ccccc1Cl)N1CCC(C2(c3ccccn3)NC(=O)N(CC3CCCO3)C2=O)CC1` (configuration not stated), the “bacterial growth OD600” value (polymyxin B 0.75 µg/mL) worked out at 0.867.

With `CC(C)N(C)C(=O)CC1C(=O)NCCN1Cc1ccc(F)cc1Cl` (configuration not stated), the “bacterial growth OD600” value (polymyxin B 1 µg/mL) amounted to 0.89. `COc1ccccc1OCC(=O)NCC1CCCN(Cc2ccccc2C)C1` (configuration not stated): where the note is “polymyxin B 1 µg/mL”, the “bacterial growth OD600” value was found to be 0.854. `Cc1nc(C)c(C(=O)N2CCc3[nH]nc(-c4ccc5c(c4)OCO5)c3C2)s1`: for the setting “polymyxin B 0.75 µg/mL”, the “bacterial growth OD600” value is 0.695.

For `C=CCC(=O)N1CCC(Oc2ccc(C(=O)NC3CCCC3)cc2Cl)CC1`, the “bacterial growth OD600” value (polymyxin B 1 µg/mL) worked out at 1.22. As to `Cc1ncc2c(c1CNC(=O)CSc1ccccc1)CCN(C(=O)C1COc3ccccc3O1)C2` (configuration not stated), for the setting “polymyxin B 0.75 µg/mL”, the “bacterial growth OD600” value stood at 0.788. Turning to `COC(=O)[C@@H](NC1CCN(c2cccc(NC(=O)c3ccncc3)c2)CC1)c1ccccc1`, for the setting “polymyxin B 0.75 µg/mL”, the “bacterial growth OD600” value was found to be 0.826.
